The target in test [1] is T1, FOXA2 (human (endogenous in primary human hepatocytes and HepaRG cells)) (UniProt Q9Y261).
T1 sequence: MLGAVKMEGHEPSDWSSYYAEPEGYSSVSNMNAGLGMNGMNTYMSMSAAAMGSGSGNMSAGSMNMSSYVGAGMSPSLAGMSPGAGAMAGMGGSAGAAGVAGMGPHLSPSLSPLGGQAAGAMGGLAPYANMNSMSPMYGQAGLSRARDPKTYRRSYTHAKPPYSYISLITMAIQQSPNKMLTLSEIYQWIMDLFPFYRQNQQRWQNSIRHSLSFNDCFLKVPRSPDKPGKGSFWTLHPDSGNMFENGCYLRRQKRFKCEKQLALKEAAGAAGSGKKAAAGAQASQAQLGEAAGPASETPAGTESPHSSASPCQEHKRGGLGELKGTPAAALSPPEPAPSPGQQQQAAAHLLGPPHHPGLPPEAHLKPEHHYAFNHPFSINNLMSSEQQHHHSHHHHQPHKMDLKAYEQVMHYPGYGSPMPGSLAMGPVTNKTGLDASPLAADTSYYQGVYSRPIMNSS
The test is described as follows: co-IP.

Amino acid sequences for entries named in this document (tags omitted).
UniProt Q15648: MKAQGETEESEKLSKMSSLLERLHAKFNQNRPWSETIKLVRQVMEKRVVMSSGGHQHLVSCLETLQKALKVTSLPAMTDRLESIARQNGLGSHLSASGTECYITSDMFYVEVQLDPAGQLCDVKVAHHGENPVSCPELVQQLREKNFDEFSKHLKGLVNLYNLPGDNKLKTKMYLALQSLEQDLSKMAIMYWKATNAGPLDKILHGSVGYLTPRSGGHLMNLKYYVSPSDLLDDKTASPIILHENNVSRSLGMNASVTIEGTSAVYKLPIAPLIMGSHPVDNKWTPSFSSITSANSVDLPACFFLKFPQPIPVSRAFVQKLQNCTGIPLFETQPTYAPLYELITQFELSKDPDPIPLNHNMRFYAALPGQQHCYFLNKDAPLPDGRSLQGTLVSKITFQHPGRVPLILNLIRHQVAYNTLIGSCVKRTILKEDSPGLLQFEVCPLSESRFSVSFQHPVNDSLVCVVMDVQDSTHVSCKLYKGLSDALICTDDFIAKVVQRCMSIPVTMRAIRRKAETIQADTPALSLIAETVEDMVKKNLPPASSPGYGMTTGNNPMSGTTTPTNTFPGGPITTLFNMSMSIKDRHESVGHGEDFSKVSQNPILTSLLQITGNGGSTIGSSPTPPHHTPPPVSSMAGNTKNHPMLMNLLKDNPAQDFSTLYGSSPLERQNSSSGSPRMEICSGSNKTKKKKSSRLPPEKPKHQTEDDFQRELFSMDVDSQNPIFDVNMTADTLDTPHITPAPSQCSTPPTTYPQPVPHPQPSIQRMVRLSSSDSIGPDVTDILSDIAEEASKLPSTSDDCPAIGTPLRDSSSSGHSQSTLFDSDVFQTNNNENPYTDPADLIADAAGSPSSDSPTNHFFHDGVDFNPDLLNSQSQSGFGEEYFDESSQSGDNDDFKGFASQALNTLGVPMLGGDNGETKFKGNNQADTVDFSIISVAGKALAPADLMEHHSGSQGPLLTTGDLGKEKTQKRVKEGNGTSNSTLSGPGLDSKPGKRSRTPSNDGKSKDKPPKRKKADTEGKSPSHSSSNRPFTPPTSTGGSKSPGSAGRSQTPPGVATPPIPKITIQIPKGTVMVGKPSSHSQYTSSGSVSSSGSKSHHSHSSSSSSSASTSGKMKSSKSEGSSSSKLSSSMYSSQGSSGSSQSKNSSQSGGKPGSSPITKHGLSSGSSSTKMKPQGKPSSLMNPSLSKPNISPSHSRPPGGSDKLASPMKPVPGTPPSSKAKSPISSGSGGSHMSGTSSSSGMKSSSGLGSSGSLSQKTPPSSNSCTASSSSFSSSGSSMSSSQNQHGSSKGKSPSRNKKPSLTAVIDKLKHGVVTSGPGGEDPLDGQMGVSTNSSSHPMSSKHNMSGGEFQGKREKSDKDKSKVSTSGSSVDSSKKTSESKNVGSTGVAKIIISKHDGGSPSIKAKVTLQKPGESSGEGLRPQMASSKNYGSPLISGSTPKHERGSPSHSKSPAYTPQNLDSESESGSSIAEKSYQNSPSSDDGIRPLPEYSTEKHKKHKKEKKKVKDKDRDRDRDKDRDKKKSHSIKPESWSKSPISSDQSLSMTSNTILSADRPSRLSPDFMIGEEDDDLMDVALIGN

For test [2], the target named is T1, FOXA2 (human (endogenous in primary human hepatocytes and HepaRG cells)). The test is described as follows: co-IP. The source holds these as a separate data set.

Like-named read-outs stand apart in the source and are kept apart here. Results are given in words; binding and its absence hold for the method and conditions named. In cells and extracts the contact can be indirect. Some entries that bind do so weakly or less than the wild type.

Turning to MED1 (from UniProt Q15648 1-1581), the binding entry in test [1] is “no binding”.

B1: HNF4α (protein, UniProt P41235 1-474)
chain: MRLSKTLVDMDMADYSAALDPAYTTLEFENVQVLTMGNDTSPSEGTNLNAPNSLGVSALCAICGDRATGKHYGASSCDGCKGFFRRSVRKNHMYSCRFSRQCVVDKDKRNQCRYCRLKKCFRAGMKKEAVQNERDRISTRRSSYEDSSLPSINALLQAEVLSRQITSPVSGINGDIRAKKIASIADVCESMKEQLLVLVEWAKYIPAFCELPLDDQVALLRAHAGEHLLLGATKRSMVFKDVLLLGNDYIVPRHCPELAEMSRVSIRILDELVLPFQELQIDDNEYAYLKAIIFFDPDAKGLSDPGKIKRLRSQVQVSLEDYINDRQYDSRGRFGELLLLLPTLQSITWQMIEQIQFIKLFGMAKIDNLLQEMLLGGSPSDAPHAHHPLHPHLMQEHMGTNVIVANTMPTHLSNGQMCEWPRPRGQAATPETPQPSPPGGSGSEPYKLLPGAVATIVKPLSAIPQPTITKQEVI
For the molecule B1, the binding entry in test [1] and in test [2] was “binds” throughout.

Source of the values: publication doi:10.1101/2025.06.04.657826.
